{"source": "PubChem BioAssay AID686937 (Drosophila RNAi Screening Center, 2013)", "test": "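Genes whose loss weakens secretory pathway function in fly cells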 (primary screen)", "cells": "Drosophila S2 cells expressing secreted horseradish peroxidase", "reagent": "long dsRNA against Drosophila genes", "time to read-out": "about 5.5 days (5 days dsRNA, then 12 h reporter induction)", "conditions": "reporter expression induced after 5 days of dsRNA, read 12 h later; inducer not stated", "measurement": "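After 5 days of dsRNA and 12 h of reporter induction, medium peroxidase read by chemiluminescence and scored as per-plate z-score; higher values mean more reporter released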", "scale": "z-score: higher = more reporter secreted into medium", "note": "In all, the deposit lists about 23,000 reagents; below is an unselected part of those that have a named target and a result. 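Reduced-secretion tags in replicate 1 do not always agree with the z-scores; no criterion for assigning the tags was given.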 The numbers tell different reagents against one gene apart. A plus sign joins genes that one reagent is predicted to hit. Further read-outs or replicates are left out here. Reagent sequences are not shown. Not given: the amount of reagent."}
{"Gene":"CROT","reagent no.":1,"z-score, replicate 1":-0.39}
{"Gene":"CROT","reagent no.":2,"z-score, replicate 1":-0.15}
{"Gene":"CG33752","reagent no.":1,"z-score, replicate 1":0.33}
{"Gene":"cup","reagent no.":1,"z-score, replicate 1":0.23}
{"Gene":"Rab9D + Rab9Fa + Rab9E","reagent no.":1,"z-score, replicate 1":0.2}
{"Gene":"PMP34","reagent no.":1,"z-score, replicate 1":0.28}
{"Gene":"CG11509 (retired record)","reagent no.":1,"z-score, replicate 1":0.39}
{"Gene":"phyl","reagent no.":1,"z-score, replicate 1":0.19}
{"Gene":"yata","reagent no.":1,"z-score, replicate 1":0.27}
{"Gene":"Icmt","reagent no.":1,"z-score, replicate 1":0.15}
{"Gene":"CG8252","reagent no.":1,"z-score, replicate 1":0.3}
{"Gene":"Scp2","reagent no.":1,"z-score, replicate 1":0.73}
{"Gene":"Scp2","reagent no.":2,"z-score, replicate 1":0.28}
{"Gene":"CG1603","reagent no.":1,"z-score, replicate 1":-0.52}
{"Gene":"CG9294","reagent no.":1,"z-score, replicate 1":0.08}
{"Gene":"fng","reagent no.":1,"z-score, replicate 1":0.69}
{"Gene":"fng","reagent no.":2,"z-score, replicate 1":-0.23}
{"Gene":"fng","reagent no.":3,"z-score, replicate 1":0.37}
{"Gene":"Ugt37A3","reagent no.":1,"z-score, replicate 1":-0.17}
{"Gene":"CG14297","reagent no.":1,"z-score, replicate 1":0.13}
{"Gene":"ind","reagent no.":1,"z-score, replicate 1":-1.1}
{"Gene":"CG11756","reagent no.":1,"z-score, replicate 1":0.42}
{"Gene":"CG13248","reagent no.":1,"z-score, replicate 1":0.43}
{"Gene":"stac","reagent no.":1,"z-score, replicate 1":-0.83}
{"Gene":"stac","reagent no.":2,"z-score, replicate 1":0.29}
{"Gene":"stac","reagent no.":3,"z-score, replicate 1":0.25}
{"Gene":"repo","reagent no.":1,"z-score, replicate 1":0.04}
{"Gene":"Fadd","reagent no.":1,"z-score, replicate 1":0.31}
{"Gene":"Cyt-c1L","reagent no.":1,"z-score, replicate 1":0.54}
{"Gene":"Cyt-c1L","reagent no.":2,"z-score, replicate 1":0.33}
{"Gene":"Ctr1A","reagent no.":1,"z-score, replicate 1":-0.35}
{"Gene":"CG31633","reagent no.":1,"z-score, replicate 1":0.22}
{"Gene":"CG3698","reagent no.":1,"z-score, replicate 1":0.42}
{"Gene":"js","reagent no.":1,"z-score, replicate 1":0.09}
{"Gene":"Prat","reagent no.":1,"z-score, replicate 1":0.2}
{"Gene":"Cap-D2","reagent no.":1,"z-score, replicate 1":-0.32}
{"Gene":"Taz","reagent no.":1,"z-score, replicate 1":-0.29}
{"Gene":"Taz","reagent no.":2,"z-score, replicate 1":-2.4}
{"Gene":"MED25","reagent no.":1,"z-score, replicate 1":-6.88}
{"Gene":"CG43376","reagent no.":1,"z-score, replicate 1":0.25}
